From doi:10.1101/2020.06.04.133611 (bioRxiv, 2020)
Results are given in words; binding and its absence hold for the method and conditions named. In cells and extracts the contact can be indirect. Some binding calls cover weakened binding; strength is not graded here.

Biological target: T1, MlaA (E. coli K-12) (UniProt P76506)
T1 sequence: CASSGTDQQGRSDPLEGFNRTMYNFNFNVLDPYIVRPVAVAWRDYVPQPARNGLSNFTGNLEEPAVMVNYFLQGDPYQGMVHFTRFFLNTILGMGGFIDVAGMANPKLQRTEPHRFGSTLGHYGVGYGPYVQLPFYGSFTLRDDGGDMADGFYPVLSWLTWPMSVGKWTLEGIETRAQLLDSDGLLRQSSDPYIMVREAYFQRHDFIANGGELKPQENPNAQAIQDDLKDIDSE
Experiment: pull-down

binding: binds
B1: OmpF (protein, UniProt P02931 23-362)
chain: AEIYNKDGNKVDLYGKAVGLHYFSKGNGENSYGGNGDMTYARLGFKGETQINSDLTGYGQWEYNFQGNNSEGADAQTGNKTRLAFAGLKYADVGSFDYGRNYGVVYDALGYTDMLPEFGGDTAYSDDFFVGRVGGVATYRNSNFFGLVDGLNFAVQYLGKNERDTARRSNGDGVGGSISYEYEGFGIVGAYGAADRTNLQEAQPLGNGKKAEQWATGLKYDANNIYLAANYGETRNATPITNKFTNTSGFANKTQDVLLVAQYQFDFGLRPSIAYTKSKAKDVEGIGDVDLVNYFEVGATYYFNKNMSTYVDYIINQIDSDNKLGVGSDDTVAVGIVYQF
